The record followed here is patent US7468281B2, “Hollow fiber membrane sample preparation devices” (priority 2001, dated 2008).

A short description of the series: LPME of drugs from human plasma, urine and whole blood with vial format device, CZE analysis. Type of series: physicochemical.

As to `COc1ccc2cc([C@H](C)C(=O)O)ccc2c1` [Naproxen, naproxen], the Detection limit (human urine, 226 nm) is given as 2 ng/mL.
Regarding `CN[C@@H](C)Cc1ccccc1` [methamphetamine], the Detection limit (human urine or plasma, UV 200 nm) amounted to 5 ng/mL.
For the compound `CNCCCC1(c2ccc(F)cc2)OCc2cc(C#N)ccc21` (stereo not drawn) [N-desmethyl metabolite, N-desmethylcitalopram], the Detection limit (human plasma, 200 nm) was found to be 5 ng/mL.
